Record: PubChem BioAssay AID1259282 (Sanger Institute, 2017)

Test: 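Kinases whose loss reduces viability on their own or with anchor drugs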 (primary screen)
Cells: DIFI human colorectal cancer cell line
Knock-down reagent: siRNA pool against human genes
Challenge: anchor drug at a mild dose (BYL719 1 µM, cetuximab 5 µg/ml, trametinib 10 nM) or DMSO vehicle; exposure time not given
Detection: 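Viability relative to non-targeting pool wells, replicate mean, in DMSO or low-dose BYL719, cetuximab or trametinib; robust z-score without drug; synergy score per drug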
Direction: robust z-score, knock-down alone: higher = more viable cells than typical knock-down; viability, knock-down alone: higher = more viable cells
Hit rule: 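a knock-down is called essential if its DMSO robust z-score is under -3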
Calls: active = essential (knock-down alone, z below -3); inactive = not essential
Shown is an unselected part of 794 reagents tested. 11 of all reagents (1.4%) were called active. 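Calls flag knock-downs that lower viability without drug; drug synergy appears only in the synergy scores; exposure time not stated.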 No viability above 1 is reported: the scale is capped. Further read-outs or replicates are left out here. Not stated in the record: the amount of reagent, the time to read-out.

no.	gene	robust z-score, knock-down alone	viability, knock-down alone (fraction of control)	Outcome
1	CHEK2 (GeneID 11200)	0.715	1	inactive
2	MARK2 (GeneID 2011)	0.715	1	inactive
3	CDK11A (GeneID 728642)	-0.841	0.774	inactive
4	RIOK1 (GeneID 83732)	-0.851	0.773	inactive
5	MYO3B (GeneID 140469)	0.715	1	inactive
6	ROR1 (GeneID 4919)	0.715	1	inactive
7	EPHA1 (GeneID 2041)	0.681	0.995	inactive
8	VRK1 (GeneID 7443)	0.715	1	inactive
9	CALM2 (GeneID 805)	-1.31	0.705	inactive
10	PHKB (GeneID 5257)	0.715	1	inactive
11	CSNK1G2 (GeneID 1455)	0.715	1	inactive
12	SRMS (GeneID 6725)	0.177	0.922	inactive
13	FN3KRP (GeneID 79672)	-1.12	0.733	inactive
14	YES1 (GeneID 7525)	0.715	1	inactive

Records above whose target name starts with M or m:
gene	robust z-score, knock-down alone	viability, knock-down alone (fraction of control)	Outcome
MARK2 (GeneID 2011)	0.715	1	inactive
MYO3B (GeneID 140469)	0.715	1	inactive

Next reagents:
no.	gene	robust z-score, knock-down alone	viability, knock-down alone (fraction of control)	Outcome
15	CREBBP (GeneID 1387)	-1.15	0.73	inactive
16	PRKD2 (GeneID 25865)	0.715	1	inactive
17	MYLK3 (GeneID 91807)	-0.549	0.816	inactive
18	NME6 (GeneID 10201)	-2	0.605	inactive
19	BMPR2 (GeneID 659)	-0.0474	0.889	inactive
20	MAK (GeneID 4117)	0.362	0.949	inactive
21	CLK2 (GeneID 1196)	0.715	1	inactive
22	AXL (GeneID 558)	0.715	1	inactive
23	MATK (GeneID 4145)	0.715	1	inactive
24	MAP3K7 (GeneID 6885)	-0.704	0.794	inactive
25	GNAS (GeneID 2778)	-0.937	0.76	inactive
26	GRK4 (GeneID 2868)	-2.05	0.598	inactive
27	AK2 (GeneID 204)	0.715	1	inactive
28	PHKG1 (GeneID 5260)	0.715	1	inactive
29	CSNK2A2 (GeneID 1459)	-0.857	0.772	inactive
30	DSTYK (GeneID 25778)	0.715	1	inactive
31	GK2 (GeneID 2712)	0.324	0.943	inactive
32	PHKG2 (GeneID 5261)	0.715	1	inactive
33	MAP3K10 (GeneID 4294)	0.715	1	inactive
34	CDKN1C (GeneID 1028)	0.715	1	inactive
